Here are results for 1 molecule from article PMC7790559.

Chains of the proteins cited; added tags and fusions are not shown. Lines headed by an entry give the natural chain unless they say otherwise; changes in a name come on top. A line that says so, or that is headed by a name, gives the form on record, which may keep a tag or linker.
sarcoplasmic reticulum Ca2+-ATPase 2a (SERCA2a), endogenous in H9c2 cells (rat (endogenous in H9c2)) (P11507, form named): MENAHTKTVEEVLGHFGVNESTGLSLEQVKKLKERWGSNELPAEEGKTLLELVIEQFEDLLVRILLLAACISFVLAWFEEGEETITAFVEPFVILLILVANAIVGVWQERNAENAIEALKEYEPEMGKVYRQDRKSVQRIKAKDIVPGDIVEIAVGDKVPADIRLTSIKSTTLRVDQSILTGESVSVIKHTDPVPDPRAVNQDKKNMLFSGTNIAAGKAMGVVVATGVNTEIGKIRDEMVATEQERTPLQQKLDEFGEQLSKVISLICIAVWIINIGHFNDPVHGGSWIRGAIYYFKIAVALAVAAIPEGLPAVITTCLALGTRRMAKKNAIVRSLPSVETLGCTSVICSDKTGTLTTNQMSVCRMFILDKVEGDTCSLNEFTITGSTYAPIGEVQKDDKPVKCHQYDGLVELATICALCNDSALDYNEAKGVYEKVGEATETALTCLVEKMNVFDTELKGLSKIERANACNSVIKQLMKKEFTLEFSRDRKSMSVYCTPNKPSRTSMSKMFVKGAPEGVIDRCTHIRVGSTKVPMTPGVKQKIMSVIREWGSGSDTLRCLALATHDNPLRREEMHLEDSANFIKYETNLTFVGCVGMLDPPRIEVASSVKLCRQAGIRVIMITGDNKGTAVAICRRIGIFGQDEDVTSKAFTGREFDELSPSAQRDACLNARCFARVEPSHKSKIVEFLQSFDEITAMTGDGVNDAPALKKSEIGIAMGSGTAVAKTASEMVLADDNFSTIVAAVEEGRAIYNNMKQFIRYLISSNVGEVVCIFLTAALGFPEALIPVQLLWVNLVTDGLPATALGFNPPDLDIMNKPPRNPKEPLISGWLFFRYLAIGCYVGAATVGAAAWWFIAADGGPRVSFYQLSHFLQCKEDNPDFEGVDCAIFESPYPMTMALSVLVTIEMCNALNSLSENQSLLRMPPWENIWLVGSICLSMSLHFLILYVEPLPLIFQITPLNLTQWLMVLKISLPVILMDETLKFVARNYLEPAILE

This assay addresses sarcoplasmic reticulum Ca2+-ATPase 2a (SERCA2a), endogenous in H9c2 cells (rat (endogenous in H9c2)) (UniProt P11507). In words: co-IP; H9c2 lysates (cells treated with ISO 1 μmol/L and OPD 0.25, 0.5, 1 μmol/L); precipitated with SERCA2a antibody or IgG as control overnight at 4°C, Protein G magnetic beads, blotted with PLB/p-PLB antibody.

These are yes or no findings as the source states them, for the method shown. Binding seen in cells or lysates may run through a third protein. Some entries that bind do so weakly or less than the wild type.

B1: phospholamban (PLB), endogenous in H9c2 cells (protein, UniProt P61016 1-52)
chain: MEKVQYLTRSAIRRASTIEMPQQARQNLQNLFINFCLILICLLLICIIVMLL
As for B1, the binding result is listed as “binds”.
